From PubChem BioAssay AID2685 (National Center for Advancing Translational Sciences (NCATS), 2010)
The list shows a part of the results. These are further read-outs of the screen, such as a control signal, another cell line or another target. No call is given for them. Most of these compounds were active or inconclusive in the main read-out, so they are no random draw. Words in brackets tell the shape of the fitted curve; partial curves, single points and poor fits give uncertain potencies.

Experiment: qHTS Assay for Lipid Storage Modulators in Drosophila S3 Cells;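 as to cell number change: cells counted by Cell Tracker Red CMTPX staining in the red channel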
Conditions: BODIPY lipid droplet fluorescence, 18-24 h; for cell number change: measured here: cell count max response, cells fed with added oleic acid
Method in brief: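 Laser-scanning cytometry quantifies lipid droplet accumulation (500–530 nm total intensity; droplet/cell object ratio) in oleic acid-fed (400 uM added) Drosophila S3 cells treated with a concentration series. 20 uM Triacsin C defined 100% inhibition.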

[1] = measured here: cell number channel AC50, cells fed with added oleic acid
[2] = measured here: lipid fluorescence (Fed channel) AC50, cells fed with added oleic acid

## COc1ccc(NC(=O)N/C=C/c2ccco2)cc1
[1]
  AC50: 0.164 µM [falling, full curve, poor fit]

## C/C=C(\C)C(=O)O[C@H](c1cc2ccc(=O)oc2cc1OC)[C@@H](O)C(C)(C)O
  cell number change: 8.66%
[2]
  AC50: 20.6 µM [rising, single point]

## NC(=O)C1CCN(C(=O)COc2ccc3c4c(c(=O)oc3c2)CCC4)CC1
  cell number change: 37.2%
[2]
  AC50: 3.26 µM [rising, single point]

## COc1ccc(OC)c(C2CC(=O)N3CN(c4ccccc4)CSC3=C2C#N)c1 (stereo unspecified)
  cell number change: -10.4%

## CC1(C)CC(=O)C2=C(C1)Oc1ncn(CCCn3ccnc3)c(=N)c1C2c1ccccc1 (stereo unspecified)
  cell number change: 0.329%
[1]
  AC50: 0.092 µM [rising, full curve, poor fit]

## O=C(CCNC(=O)N1CCn2c1nc1ccccc12)NCc1ccc(Cl)cc1
  cell number change: 12.9%
[2]
  AC50: 29.1 µM [rising, single point]

## Cc1ccc(NC(=O)CN(C)C(=O)c2ccc(Cl)c([N+](=O)[O-])c2)cc1
  cell number change: -28.7%
[2]
  AC50: 29.1 µM [falling, partial curve, poor fit]

## CCOP(=O)(OCC)c1ccccc1OCP(C)(=O)COc1ccccc1P(=O)(OCC)OCC
  cell number change: -14.8%
[2]
  AC50: 6.51 µM [falling, single point]

## COc1ccccc1/C=N/NC(=O)c1cc2c(ccc3ccccc32)o1
  cell number change: 14.4%
[2]
  AC50: 29.1 µM [falling, single point]

## CSc1nc(N)nc(SCC(=O)CC(=O)OC(C)C)c1C#N
  cell number change: 214%
[1]
  AC50: 20.6 µM [rising, single point]

## CN1c2ccccc2C(C)(C)[C@]12C=Cc1cc(O)ccc1O2
  cell number change: -93.4%
[1]
  AC50: 23.1 µM [falling, partial curve]

## CCOc1cc(N2CCOCC2)c(OCC)cc1NC(=O)C(C)(C)C
  cell number change: -9.2%
[1]
  AC50: 0.651 µM [rising, single point]
[2]
  AC50: 0.461 µM [rising, partial curve, poor fit]

## COc1cccc(NC(=O)CN(c2ccccc2OC)S(=O)(=O)c2cccs2)c1
  cell number change: 3.73%
[1]
  AC50: 1.64 µM [falling, partial curve]
[2]
  AC50: 1.84 µM [falling, partial curve, poor fit]

## O=C(COc1ccc2ccc(=O)oc2c1)OCc1ccccc1
  cell number change: 33.3%

## CC(C)(C)NC(=S)Nc1ccc(Nc2ccccc2)cc1
  cell number change: -25.1%
[2]
  AC50: 1.46 µM [falling, partial curve, poor fit]

## COc1ccc(-c2nc(CN3CCC(C(=O)NC4CCN(Cc5ccccc5)CC4)CC3)c(C)o2)cc1OC
  cell number change: -8.26%

## CCOc1ccc(CN(CC)C(=O)c2ccc3c(c2)[nH]c(=O)c(=O)n3CC)cc1OC
  cell number change: 4.76%
[2]
  AC50: 29.1 µM [falling, single point]

## CC(C)(C)C(=O)Nc1ccc(C(=O)COC(=O)C2=COCCO2)cc1
  cell number change: -29.7%

## COc1ccc(OC)c(C(=O)NC(CC(N)=O)c2ccc(N3CCN(c4ccccn4)CC3)c([N+](=O)[O-])c2)c1 (stereo unspecified)
  cell number change: 6.89%

## O=C1c2ccccc2C(Nc2ccccc2F)N1c1cccnc1 (stereo unspecified)
  cell number change: -8.57%
[2]
  AC50: 0.651 µM [falling, full curve, poor fit]

## CC(=O)c1cccc(N(CC(=O)N2CCCC2)S(C)(=O)=O)c1
  cell number change: -70.3%
[1]
  AC50: 29.1 µM [falling, single point]

## CCOC(=O)c1nnsc1NC(=O)Nc1ccc(OC)cc1
[1]
  AC50: 1.64 µM [falling, partial curve, poor fit]

## O=C(NCC1CCCO1)C(c1cccs1)N(C(=O)c1ccc(CN2CCOCC2)o1)c1ccc(Cl)cc1 (stereo unspecified)
  cell number change: -26.7%
[2]
  AC50: 23.1 µM [falling, single point]

## COc1ccc(N2CCN(C3CCCN(Cc4ccccc4OCCO)C3)CC2)cc1 (stereo unspecified)
[2]
  AC50: 0.651 µM [falling, single point]

## COC(=O)c1sccc1NC(=O)c1ccc(OC)c(OC)c1
[1]
  AC50: 3.66 µM [rising, single point]
[2]
  AC50: 5.8 µM [rising, full curve]

## CC(C)c1ccc(N(CC(=O)NCc2ccc(F)cc2)C(=O)c2snc(C(N)=O)c2N)cc1
  cell number change: 60%
[1]
  AC50: 29.1 µM [rising, single point]
[2]
  AC50: 29.1 µM [rising, single point]

## COc1ccc2oc(=O)c(C(=O)N3CCCC3)cc2c1
  cell number change: -1.2%
[2]
  AC50: 0.92 µM [falling, single point]

## Cc1ccc(C(=O)NCc2ccco2)cc1
  cell number change: 3.17%
[2]
  AC50: 16.4 µM [rising, single point]

## Oc1ccccc1-c1nc2c3ccccc3c3ccccc3c2[nH]1
  cell number change: -8.05%
[2]
  AC50: 29.1 µM [falling, single point]

## COc1cc(CN2CCC(CO)(Cc3cccc(C(F)(F)F)c3)CC2)ccc1F
  cell number change: -12.8%
[2]
  AC50: 16.4 µM [falling, single point]

## O=C(Cn1cnc2ccccc2c1=O)c1ccc(OC(F)F)cc1
  cell number change: -3.95%

## O=C(O)CSc1ncnc2scc(-c3ccc(Br)cc3)c12
  cell number change: -6.23%
[2]
  AC50: 0.13 µM [falling, full curve, poor fit]

## CC(=O)c1nn(-c2cccc(Br)c2)cc1C(=O)c1ccc(Br)cc1
  cell number change: 9.78%
[2]
  AC50: 6.51 µM [rising, single point]

## COc1ccc(CCC(=O)Nc2cccc(S(=O)(=O)N3CCCC3)c2)cc1OC
  cell number change: 21.9%
[2]
  AC50: 0.231 µM [rising, full curve, poor fit]

## CCOc1ccccc1-c1nnc(SCC(=O)NC2CC2)n1CC
  cell number change: 2.76%

## CCc1c(C)nc(Nc2nc(C)c3cc(OC)ccc3n2)[nH]c1=O
  cell number change: -18.7%
[2]
  AC50: 5.17 µM [falling, partial curve, poor fit]

## Cc1ccc(NC(=O)c2cc(NC(=O)c3ccco3)ccc2N2CCOCC2)cc1Cl
  cell number change: 50%
[1]
  AC50: 7.31 µM [rising, partial curve]
[2]
  AC50: 1.84 µM [rising, partial curve]

## O=c1c(-c2ccc(Oc3ccccc3)cc2)[n+]([O-])c2ccccc2n1OCc1ccccn1
[1]
  AC50: 0.0517 µM [rising, full curve, poor fit]

## NS(=O)(=O)c1c(Sc2ccccc2C(=O)O)ccc2ccccc12
  cell number change: 10.3%
[2]
  AC50: 13 µM [rising, partial curve]
